The values that follow come from publication PMC10318496.

Amino acid sequences for entries named in this document (tags omitted).
UniProt O15169: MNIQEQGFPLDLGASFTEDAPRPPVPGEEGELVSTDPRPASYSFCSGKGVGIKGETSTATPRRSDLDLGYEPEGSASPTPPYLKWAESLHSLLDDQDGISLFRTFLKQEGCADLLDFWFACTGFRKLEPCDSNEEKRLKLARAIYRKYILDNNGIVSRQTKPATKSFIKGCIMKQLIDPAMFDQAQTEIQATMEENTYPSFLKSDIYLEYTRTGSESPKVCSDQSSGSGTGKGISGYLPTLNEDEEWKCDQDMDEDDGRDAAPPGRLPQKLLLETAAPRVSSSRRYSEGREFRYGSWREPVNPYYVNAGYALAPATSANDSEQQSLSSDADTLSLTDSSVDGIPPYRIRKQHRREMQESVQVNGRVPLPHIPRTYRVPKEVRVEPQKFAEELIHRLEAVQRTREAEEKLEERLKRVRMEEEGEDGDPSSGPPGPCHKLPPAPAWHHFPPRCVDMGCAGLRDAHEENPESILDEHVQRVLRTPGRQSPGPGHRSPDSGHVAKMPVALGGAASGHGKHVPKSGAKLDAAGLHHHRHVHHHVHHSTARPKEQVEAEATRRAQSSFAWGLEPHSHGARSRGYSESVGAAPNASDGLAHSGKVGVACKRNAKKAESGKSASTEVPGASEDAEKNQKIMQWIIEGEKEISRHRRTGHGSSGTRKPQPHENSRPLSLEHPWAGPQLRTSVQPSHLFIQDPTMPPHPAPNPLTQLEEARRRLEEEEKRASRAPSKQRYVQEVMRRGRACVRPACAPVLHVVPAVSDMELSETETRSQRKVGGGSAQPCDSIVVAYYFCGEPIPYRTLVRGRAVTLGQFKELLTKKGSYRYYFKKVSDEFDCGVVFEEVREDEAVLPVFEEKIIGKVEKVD
UniProt O94972: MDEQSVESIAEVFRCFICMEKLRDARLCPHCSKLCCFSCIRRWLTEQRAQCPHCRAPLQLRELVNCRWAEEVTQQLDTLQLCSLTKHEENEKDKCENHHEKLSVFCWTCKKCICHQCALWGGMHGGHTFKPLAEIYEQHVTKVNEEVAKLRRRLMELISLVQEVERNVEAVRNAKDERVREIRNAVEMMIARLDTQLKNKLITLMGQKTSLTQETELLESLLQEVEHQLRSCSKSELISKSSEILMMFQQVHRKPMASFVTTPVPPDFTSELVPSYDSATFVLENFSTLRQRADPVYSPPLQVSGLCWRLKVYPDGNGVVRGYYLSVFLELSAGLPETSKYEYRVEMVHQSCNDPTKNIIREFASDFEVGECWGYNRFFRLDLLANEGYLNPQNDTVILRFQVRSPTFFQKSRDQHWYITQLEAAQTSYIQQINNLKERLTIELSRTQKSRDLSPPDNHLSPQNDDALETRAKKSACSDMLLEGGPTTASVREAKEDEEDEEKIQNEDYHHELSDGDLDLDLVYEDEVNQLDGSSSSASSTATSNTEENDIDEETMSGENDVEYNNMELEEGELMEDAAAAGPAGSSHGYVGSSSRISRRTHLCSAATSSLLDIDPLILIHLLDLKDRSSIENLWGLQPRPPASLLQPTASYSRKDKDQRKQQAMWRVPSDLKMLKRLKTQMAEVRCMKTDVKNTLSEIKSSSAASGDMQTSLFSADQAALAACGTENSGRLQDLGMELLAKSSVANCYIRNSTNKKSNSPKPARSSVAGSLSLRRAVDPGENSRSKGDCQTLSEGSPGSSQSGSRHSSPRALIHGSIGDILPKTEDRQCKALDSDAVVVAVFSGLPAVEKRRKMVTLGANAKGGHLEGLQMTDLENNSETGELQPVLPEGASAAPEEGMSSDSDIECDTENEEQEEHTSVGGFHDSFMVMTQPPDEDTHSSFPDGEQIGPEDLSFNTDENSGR

These are yes or no findings as the source states them, for the method shown. In cells and extracts the contact can be indirect. Some results given as binding are weak or reduced against the parent protein; the word gives no strength.

For this assay, the target named is Axin1 (human (endogenous in GBC-SD)) (UniProt O15169). In words: co-IP; GBC-SD cell lysates immunoprecipitated overnight at 4°C with the indicated or anti-IgG antibodies; protein A/G-agarose beads for two hours; western blot.

Take “Tripartite motif-containing 37 (TRIM37) (from UniProt O94972 1-964)”: the binding result is given as “binds”.
